Measurements reported in PubChem BioAssay AID1053208 (Peter MacCallum Cancer Centre, 2014)
The whole screen tested about 17,000 reagents; this is a part drawn at random. Of all reagents, 788 (4.7%) are marked active. 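Calls rest on z-score classes alone; an extra cut-off of viability at most 70% of control was not applied to them.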 A reagent listed more than once was tested more than once; the source does not tell the runs apart. Reagent sequences are not shown.

Purpose: 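Synthetic lethal interactions between gene loss and doxorubicin in osteosarcoma cells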 (primary screen)
Cell system: mouse osteosarcoma cells, early-passage culture from an engineered mouse model of fibroblastic bone tumour
Reagents: siRNA pool against mouse genes, 40 nM
Timing: about 120 h (48 h before drug, then 72 h with drug)
Conditions: doxorubicin 100 nM for 72 h, roughly 30-40% inhibitory dose
Read-out: 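Luminescent ATP signal taken as viability with or without 100 nM doxorubicin for 72 h; mean of two wells set against non-targeting siRNA and turned into robust z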
Direction: viability z-score with doxorubicin and doxorubicin viability vs non-targeting: higher = more viable cells under doxorubicin; viability z-score without drug: higher = more viable cells with knock-down alone; z-score of drug to no-drug ratio: higher = less drug sensitisation by knock-down
Call rule: 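a pool counts as active when its viability z-score with doxorubicin is -2 or below and its z-score without drug lies between -2 and 2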

gene | combined z-score class | viability z-score with doxorubicin | viability z-score without drug | z-score of drug to no-drug ratio | doxorubicin viability vs non-targeting | Outcome
Cd5 (CD5 antigen) | no change with or without drug | -1.35 | -0.17 | -1.24 | 0.82 | inactive
Sntb1 (syntrophin, basic 1) | no change with or without drug | 0.79 | -0.51 | 1.35 | 1.01 | inactive
Dock7 (dedicator of cytokinesis 7) | no change with or without drug | 1.12 | 1.35 | 0.34 | 1.04 | inactive
Flt3 (FMS-like tyrosine kinase 3) | high cell count without drug only | -0.9 | 2.36 | -2.14 | 0.86 | inactive
Cdin1 (CDAN1 interacting nuclease 1) | no change with or without drug | -0.22 | -1.85 | 1.35 | 0.92 | inactive
Dmd (dystrophin, muscular dystrophy) | no change with or without drug | 0.67 | 1.52 | -0.22 | 1 | inactive
Ahsa2 (AHA1, activator of heat shock protein ATPase 2) | no change with or without drug | 0 | 1.18 | -0.67 | 0.94 | inactive
Map1lc3b (microtubule-associated protein 1 light chain 3 beta) | no change with or without drug | -1.12 | -0.67 | -0.67 | 0.84 | inactive
Mc5r (melanocortin 5 receptor) | no change with or without drug | 1.57 | 1.18 | 0.9 | 1.08 | inactive
Obox2 (oocyte specific homeobox 2) | no change with or without drug | 0.79 | 1.01 | 0.22 | 1.01 | inactive

Part of the list above, reduced to “combined z-score class”.
Dmd (dystrophin, muscular dystrophy) = no change with or without drug
Ahsa2 (AHA1, activator of heat shock protein ATPase 2) = no change with or without drug

Next entries:
gene | combined z-score class | viability z-score with doxorubicin | viability z-score without drug | z-score of drug to no-drug ratio | doxorubicin viability vs non-targeting | Outcome
Zhx3 (zinc fingers and homeoboxes 3) | no change with or without drug | 1.12 | -0.17 | 1.46 | 1.04 | inactive
Cdc7 (cell division cycle 7) | no change with or without drug | 0 | -1.18 | 1.01 | 0.94 | inactive
Vmn1r33 (vomeronasal 1 receptor 33) | high cell count with and without drug | 2.25 | 2.19 | 0.9 | 1.14 | inactive
Or4c3 (olfactory receptor family 4 subfamily C member 3) | no change with or without drug | -0.34 | 0 | -0.22 | 0.91 | inactive
Galt (galactose-1-phosphate uridyl transferase) | no change with or without drug | 0 | -0.51 | 0.45 | 0.94 | inactive
Klhl9 (kelch-like 9) | no change with or without drug | 0 | -0.51 | 0.45 | 0.94 | inactive
Kcna4 | no change with or without drug | -0.9 | -0.51 | -0.56 | 0.86 | inactive
Nuak2 (NUAK family, SNF1-like kinase, 2) | no change with or without drug | 0.22 | 0 | 0.34 | 0.96 | inactive
Nuak2 (NUAK family, SNF1-like kinase, 2) | no change with or without drug | 0.67 | 0.34 | 0.56 | 1 | inactive
Acacb (acetyl-Coenzyme A carboxylase beta) | no change with or without drug | 1.12 | 1.01 | 0.56 | 1.04 | inactive
